No constants are given. Whether binding was seen depends on the method and setting. For part of these data: Binding can be weak; no strength is given.

What all share (experiment): two-hybrid; pGADT7-FtMYB8 prey and pGBKT7 bait constructs co-transformed into yeast AH109; growth on SD/-Leu-Trp-His-Ade plates (reporters ADE2 and HIS3)
For assay [1], the target named is T1, AtEGL3 (Arabidopsis thaliana) (UniProt Q9CAD0).
T1 sequence: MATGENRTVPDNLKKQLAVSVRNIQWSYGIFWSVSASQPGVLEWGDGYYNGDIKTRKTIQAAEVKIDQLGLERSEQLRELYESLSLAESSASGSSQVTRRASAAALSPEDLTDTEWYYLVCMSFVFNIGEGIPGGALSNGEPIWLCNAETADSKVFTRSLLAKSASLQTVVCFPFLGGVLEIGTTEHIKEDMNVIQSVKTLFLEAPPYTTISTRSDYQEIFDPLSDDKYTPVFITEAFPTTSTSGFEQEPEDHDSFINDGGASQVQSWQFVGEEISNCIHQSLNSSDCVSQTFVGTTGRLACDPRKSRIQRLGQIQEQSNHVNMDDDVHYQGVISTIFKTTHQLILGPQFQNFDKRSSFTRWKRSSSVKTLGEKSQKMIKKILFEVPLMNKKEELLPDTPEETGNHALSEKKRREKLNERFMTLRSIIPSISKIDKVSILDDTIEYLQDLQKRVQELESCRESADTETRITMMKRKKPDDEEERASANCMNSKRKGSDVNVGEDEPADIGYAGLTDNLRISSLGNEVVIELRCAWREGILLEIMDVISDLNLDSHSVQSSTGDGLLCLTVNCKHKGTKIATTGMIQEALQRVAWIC

The target of assay [2] is T2, AtGL3 (Arabidopsis thaliana) (UniProt Q9FN69).
T2 sequence: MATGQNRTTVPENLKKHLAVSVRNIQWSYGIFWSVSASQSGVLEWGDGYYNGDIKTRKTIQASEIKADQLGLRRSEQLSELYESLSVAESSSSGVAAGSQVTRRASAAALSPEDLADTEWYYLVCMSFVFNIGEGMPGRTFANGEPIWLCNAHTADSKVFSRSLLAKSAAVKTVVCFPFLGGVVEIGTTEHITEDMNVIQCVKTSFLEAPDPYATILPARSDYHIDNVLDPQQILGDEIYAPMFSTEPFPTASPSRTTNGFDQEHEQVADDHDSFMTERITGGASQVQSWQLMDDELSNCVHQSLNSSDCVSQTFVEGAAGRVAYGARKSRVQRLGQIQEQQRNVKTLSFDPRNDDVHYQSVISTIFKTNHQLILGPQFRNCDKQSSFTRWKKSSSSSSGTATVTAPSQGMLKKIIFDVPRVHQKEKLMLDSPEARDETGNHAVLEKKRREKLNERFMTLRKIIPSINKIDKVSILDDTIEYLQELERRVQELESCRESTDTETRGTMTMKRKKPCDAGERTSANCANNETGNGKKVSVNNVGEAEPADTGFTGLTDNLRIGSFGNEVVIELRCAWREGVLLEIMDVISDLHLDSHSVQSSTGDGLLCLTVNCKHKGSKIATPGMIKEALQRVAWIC

Assay [3] concerns the target T3, AtTT8 (Arabidopsis thaliana) (UniProt Q9FT81).
T3 sequence: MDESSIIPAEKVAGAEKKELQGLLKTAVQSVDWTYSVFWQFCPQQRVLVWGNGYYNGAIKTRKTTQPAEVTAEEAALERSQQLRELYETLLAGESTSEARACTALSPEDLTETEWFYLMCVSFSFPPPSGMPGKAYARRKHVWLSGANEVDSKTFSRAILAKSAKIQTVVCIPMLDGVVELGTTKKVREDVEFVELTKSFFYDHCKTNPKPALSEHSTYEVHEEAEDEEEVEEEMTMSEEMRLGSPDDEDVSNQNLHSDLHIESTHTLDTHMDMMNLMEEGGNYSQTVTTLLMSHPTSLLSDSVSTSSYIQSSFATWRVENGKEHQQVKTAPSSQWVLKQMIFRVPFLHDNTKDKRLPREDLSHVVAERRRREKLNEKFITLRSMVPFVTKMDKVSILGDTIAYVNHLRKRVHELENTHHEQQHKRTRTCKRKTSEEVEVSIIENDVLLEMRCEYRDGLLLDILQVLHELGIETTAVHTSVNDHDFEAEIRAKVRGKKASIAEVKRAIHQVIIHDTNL

In the case of FtMYB8 (from UniProt A0A4P2UPY7), the binding result is listed as “no binding” in assay [1], “no binding” in assay [2] and “binds” in assay [3].

For the origin of these results see article PMC6582506.
